Measured values published in article PMC7060279.
No constants are given. Whether binding was seen depends on the method and setting. For some assays here: Binding calls can cover weak binding; strength is not graded here.

By UniProt entry, the sequences of proteins in these tests, tags left out. Where a name states a change or a piece, a line headed by the entry shows the natural chain unless it says otherwise. Residues count along the entry.
UniProt P18406: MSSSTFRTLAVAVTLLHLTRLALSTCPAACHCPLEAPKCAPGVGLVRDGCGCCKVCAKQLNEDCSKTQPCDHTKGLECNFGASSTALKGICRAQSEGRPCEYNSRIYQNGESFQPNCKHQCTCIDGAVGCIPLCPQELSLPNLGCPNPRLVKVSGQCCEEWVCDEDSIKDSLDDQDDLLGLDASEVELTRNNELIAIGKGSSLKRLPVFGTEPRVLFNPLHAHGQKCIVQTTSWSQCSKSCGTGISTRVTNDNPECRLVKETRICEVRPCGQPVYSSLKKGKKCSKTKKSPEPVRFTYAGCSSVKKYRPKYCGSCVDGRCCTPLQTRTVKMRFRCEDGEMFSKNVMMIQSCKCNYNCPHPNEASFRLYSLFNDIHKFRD
UniProt O60603, residues 21-588: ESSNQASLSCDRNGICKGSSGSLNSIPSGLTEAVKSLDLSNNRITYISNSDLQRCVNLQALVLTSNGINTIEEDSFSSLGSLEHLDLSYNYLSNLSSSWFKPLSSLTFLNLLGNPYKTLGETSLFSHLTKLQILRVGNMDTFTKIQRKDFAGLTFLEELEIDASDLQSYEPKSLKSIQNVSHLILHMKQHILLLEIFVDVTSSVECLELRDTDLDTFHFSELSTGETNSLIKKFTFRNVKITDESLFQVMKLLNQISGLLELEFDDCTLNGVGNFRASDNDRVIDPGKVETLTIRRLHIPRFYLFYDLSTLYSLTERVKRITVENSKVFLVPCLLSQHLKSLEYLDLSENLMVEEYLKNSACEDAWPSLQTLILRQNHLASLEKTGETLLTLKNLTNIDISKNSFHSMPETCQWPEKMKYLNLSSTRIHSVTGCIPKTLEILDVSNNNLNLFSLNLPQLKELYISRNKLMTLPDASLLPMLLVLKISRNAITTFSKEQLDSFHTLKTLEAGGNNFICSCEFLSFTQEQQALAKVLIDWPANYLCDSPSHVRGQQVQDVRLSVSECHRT
UniProt O00206, residues 24-631: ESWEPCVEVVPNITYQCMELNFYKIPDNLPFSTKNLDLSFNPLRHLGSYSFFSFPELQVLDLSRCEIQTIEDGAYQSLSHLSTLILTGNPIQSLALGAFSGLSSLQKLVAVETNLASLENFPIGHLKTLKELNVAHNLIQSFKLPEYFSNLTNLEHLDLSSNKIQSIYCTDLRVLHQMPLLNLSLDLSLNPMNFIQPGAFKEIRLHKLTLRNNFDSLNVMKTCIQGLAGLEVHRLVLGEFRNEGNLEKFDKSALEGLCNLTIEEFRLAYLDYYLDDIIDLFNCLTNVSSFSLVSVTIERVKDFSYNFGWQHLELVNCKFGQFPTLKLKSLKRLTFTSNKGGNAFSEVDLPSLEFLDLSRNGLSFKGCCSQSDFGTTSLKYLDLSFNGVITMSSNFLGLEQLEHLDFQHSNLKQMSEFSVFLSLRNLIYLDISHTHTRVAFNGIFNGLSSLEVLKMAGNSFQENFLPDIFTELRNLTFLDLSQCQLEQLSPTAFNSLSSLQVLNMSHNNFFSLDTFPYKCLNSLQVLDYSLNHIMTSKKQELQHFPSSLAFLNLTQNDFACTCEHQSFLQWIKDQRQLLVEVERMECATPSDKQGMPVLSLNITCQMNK

Experiments:
CCN1-DM mutant protein [1] = molecular target: CCN1-DM mutant protein (UniProt P18406); assay: condition: 5 µg in 5 ml PBS (methods); 2 µg in PBS; far-Western, overlay or dot blot; dot blot: CCN1-WT, -D125A and -DM (1 µg each) spotted on nitrocellulose, incubated with hTLR2 or hTLR4 in PBS; bound TLRs detected with polyclonal anti-hTLR2 or anti-hTLR4 antibodies; both purified
CCN1-DM mutant protein [2] = molecular target: CCN1-DM mutant protein (UniProt P18406); assay: far-Western, overlay or dot blot; dot blot: CCN1-WT, -D125A and -DM (1 µg each) spotted on nitrocellulose, incubated with hTLR2 or hTLR4 in PBS; bound TLRs detected with polyclonal anti-hTLR2 or anti-hTLR4 antibodies; both purified

Substance	binding (CCN1-DM mutant protein [1])	binding (CCN1-DM mutant protein [2])
human recombinant TLR2 protein (from UniProt O60603 21-588) (receptor)	no binding	–
human recombinant TLR4 protein (without MD2) (from UniProt O00206 24-631) (receptor)	–	binds
